## Percent effect of library compounds

The chains behind the UniProt entries cited, without tags or fusion partners. Residues count along the entry.
UniProt Q4DA54, 1-478: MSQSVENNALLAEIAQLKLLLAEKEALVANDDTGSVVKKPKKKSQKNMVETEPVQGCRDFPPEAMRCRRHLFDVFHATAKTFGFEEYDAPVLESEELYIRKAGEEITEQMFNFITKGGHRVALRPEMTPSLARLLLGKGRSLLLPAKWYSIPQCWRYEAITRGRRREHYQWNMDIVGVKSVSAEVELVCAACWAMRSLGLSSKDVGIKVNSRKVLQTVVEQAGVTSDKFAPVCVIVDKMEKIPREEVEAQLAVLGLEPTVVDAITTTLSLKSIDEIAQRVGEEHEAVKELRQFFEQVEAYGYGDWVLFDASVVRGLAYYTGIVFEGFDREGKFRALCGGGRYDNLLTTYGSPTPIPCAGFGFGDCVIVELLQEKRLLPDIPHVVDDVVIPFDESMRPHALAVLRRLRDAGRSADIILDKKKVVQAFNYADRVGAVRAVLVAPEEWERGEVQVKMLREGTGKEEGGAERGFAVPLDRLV
UniProt P9WNZ1, whole entry: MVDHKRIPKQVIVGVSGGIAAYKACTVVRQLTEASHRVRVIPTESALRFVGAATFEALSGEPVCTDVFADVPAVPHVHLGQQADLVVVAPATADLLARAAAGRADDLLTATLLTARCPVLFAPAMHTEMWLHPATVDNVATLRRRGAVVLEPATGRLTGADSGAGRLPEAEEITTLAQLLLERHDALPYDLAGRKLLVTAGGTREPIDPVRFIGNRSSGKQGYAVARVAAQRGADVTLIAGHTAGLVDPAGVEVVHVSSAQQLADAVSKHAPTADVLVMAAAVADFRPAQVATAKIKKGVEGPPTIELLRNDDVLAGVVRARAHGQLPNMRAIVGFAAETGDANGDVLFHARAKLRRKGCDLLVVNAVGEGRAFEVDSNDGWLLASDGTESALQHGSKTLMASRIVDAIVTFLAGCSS
UniProt A4I591, 1-473: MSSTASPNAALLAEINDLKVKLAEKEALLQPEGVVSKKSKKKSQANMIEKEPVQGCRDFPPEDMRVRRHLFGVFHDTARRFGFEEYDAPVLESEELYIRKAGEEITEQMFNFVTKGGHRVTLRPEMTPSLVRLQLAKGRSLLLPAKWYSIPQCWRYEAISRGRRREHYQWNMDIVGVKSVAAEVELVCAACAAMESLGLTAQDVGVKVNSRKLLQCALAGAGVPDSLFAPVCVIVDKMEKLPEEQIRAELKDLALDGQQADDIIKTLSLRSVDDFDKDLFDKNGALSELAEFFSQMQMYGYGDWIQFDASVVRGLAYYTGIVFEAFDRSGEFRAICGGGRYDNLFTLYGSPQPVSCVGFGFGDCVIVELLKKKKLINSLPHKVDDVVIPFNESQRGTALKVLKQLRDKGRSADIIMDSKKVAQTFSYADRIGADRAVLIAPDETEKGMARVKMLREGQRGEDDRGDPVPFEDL

From ChEMBL document CHEMBL3988442, “University of Dundee, Small-Polar-MMV Screening Library” (2021).

TcHisRS: 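Enzyme assay of histidyl-tRNA synthetase; the read-out is not stated. Target: Histidine-tRNA ligase, Trypanosoma cruzi CL Brener (UniProt Q4DA54). Compounds at 30 µM. Higher reads as stronger inhibition (inferred: compounds with an IC50 in retests scored well above the rest). About 69,000 compounds were tested under these conditions; 0.045% (about 31) showed 50% or more at least once.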
CoaBC: 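Enzyme assay of CoaBC with a phosphate dye (Biomol Green) read at 650 nm. Target: Coenzyme A biosynthesis protein CoaBC, Mycobacterium tuberculosis (UniProt P9WNZ1). Concentration: 30 µM. Higher reads as stronger inhibition, judged from the few compounds that gave an IC50. Most strong results did not repeat in a second test. Size under these conditions: about 67,000 compounds, about 40 of them at 50% or above in at least one test.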
LiHisRS: 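Enzyme assay of histidyl-tRNA synthetase; the read-out is not stated. Target: Histidine-tRNA ligase, Leishmania infantum (UniProt A4I591). Concentration: 30 µM. Direction is inferred from retests: higher values go with stronger inhibition. The assay is labelled LdHisRS but filed under L. infantum. Of about 69,000 compounds tested this way, about 410 (0.6%) reached 50% or more in at least one test.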

The filed quantity is “Percent Effect” (%). The controls that fix the scale are not given in the record; negative values are as filed. Compounds were drawn at random from those tested, without regard to their results. Two or more numbers in one place are separate tests of the same structure; such repeats can differ widely.

Compound,TcHisRS,CoaBC,LiHisRS
CCOc1cc(C)nc(N2CCN(C(=O)c3csnn3)CC2)n1,-12.87%,3.827%,16.36%
O=C(c1cc(C2CC2)nc2onc(-c3ccccc3)c12)N1CC(O)C1,7.879%,0.7299%,17.78%
Cc1ccccc1N1CC2(CCN(S(=O)(=O)c3ccccc3)C2)CC1=O (centres undefined),7.767%,5.534%,19.23%
c1cc(-c2ccc(CN3CCC4(CCNCC4)CC3)s2)[nH]n1,7.65%,-41.18%,7.018%
O=C(c1cncnc1)N1CCCC(c2nccs2)C1 (centres undefined),6.513%,-1.914%,11.51%
O=C1CCCN1CCc1noc(-c2ccc3[nH]cnc3c2)n1,6.383%,4.121%,15.62%
COCCn1ccc(NC(=O)Nc2ccc(C(N)=O)c(F)c2)n1,3.261%,4.184%,-5.714%
c1cncc(C[C@H]2[C@H](N3CCOCC3)CCN2Cc2nccs2)c1,3.483%,2.581%,22.22%
CCOCC(=O)N1CCC(Oc2ccc(Cl)cn2)CC1,6.522%,-0.8872%,18.45%
N#Cc1ccccc1C(=O)N1C[C@H](CO)C[C@H](CN2CCCC2)C1,0%,13.6%,5.714%
Cc1nn(C)c(C)c1C(C)NCc1ccsc1 (centres undefined),2.128%,12.5%,15.71%
CN(Cc1cnn(C)c1)C(=O)NCc1ccc2c(c1)OCCO2,7.872%,7.347%,-11.01%
CC(C#N)CN(C)Cc1c(Cl)ccc2cccnc12 (centres undefined),12.85%,-13.31%,0%
N#Cc1cccnc1N1CCC(OCCc2ccccc2)CC1,1.98%,3.995%,-1.087%
Cc1ccc2c(c1)OC(C)(C)CC2NC(=O)C1CCN(S(C)(=O)=O)CC1 (centres undefined),3.704%,-0.7371%,-2.151%
O=C(c1ccc(Cn2ccccc2=O)o1)N1CCSCC1,3.79%,9.589%,18.35%
CC(=O)NC1CCCN(C(=O)c2ccc(Br)cc2O)C1 (centres undefined),0.7519%,2.017%,30.95%
Cc1nccn1C1CCCN(C(=O)c2cc(Cl)c3c(c2)OCO3)C1 (centres undefined),-0.5634%,-1.399%,6.087%
CCOCC1CN(C(=O)C2=CCCC2)Cc2cnn(C)c21 (centres undefined),6.667%,7.732% and 52.16%,9.722%
CC(C)COCCNC1CCN(c2ccccn2)CC1,6.667%,-12.81%,8.036%
Cc1cc(CN2CCC(N(C)Cc3nnc(C4CC4)n3C)C2)on1 (centres undefined),4.07%,6.579%,3.571%
COc1ccccc1-c1nccnc1C1CCN(C(C)=O)CC1,11.11%,4.358%,12.37%
CC1CCCN(Cc2ccnc(-c3cccnc3)n2)C1 (centres undefined),2.996%,7.559%,14%
O=C(NCc1ccco1)[C@H]1C[C@H]2OCC[C@H]2N(C(=O)c2ccco2)C1,2.703%,0.8883%,1.887%
CCCn1cc(NC(=O)NCC2CCS(=O)(=O)C2)nn1 (centres undefined),5.155%,-0.6711%,19.54%
Cc1cnc(CN2CCCC(c3nc4ccccc4n3C(C)C)C2)o1 (centres undefined),0%,7.46%,27.27%
CCc1noc(C2CCCCN2C(=O)c2ccoc2C)n1 (centres undefined),2.732%,4.711%,9.709%
COc1ccc(CN2CC[C@@H](N)[C@@H](OC)C2)cc1Cn1cncn1,0%,-0.2169%,25%
CCCc1nc(C)c(C(=O)NC2CCN(C3CC3)C2)s1 (centres undefined),7.097%,-0.9662%,23.23%
Nc1ncc(-c2cccc(NC(=O)[C@@H]3CCCCN3)c2)cn1,6.78%,3.253%,22.86%
CC(C)[C@H](NC(=O)NC1CCS(=O)(=O)C1)C(=O)NCc1ccccc1 (some centres undefined),1.754%,0.7576%,0%
CN(C)C(=O)CCS(=O)(=O)Cc1cc(Cl)c2c(c1)OCO2,6.936%,5.492%,9.821%
O=C(Nc1nnc(N2CCCCC2)[nH]1)c1cccs1,7.65%,12.96%,19.18%
CCCc1nc(C(C)(C)NC(=O)C2CC(=O)N(C3CC3)C2)no1 (centres undefined),1.754%,-4.592%,18.18%
Cc1c(CN2CCC(C(=O)O)(n3ccnc3)CC2)oc2ccccc12,6.077%,5.825%,12.05%
CC(=O)N1CCCC1CCc1ccc(Cl)nn1 (centres undefined),4.52%,2.179%,9.79%
CN1C(=O)[C@H]2CC[C@@H]1CN(c1ncnc3ccsc13)C2,8.235%,0.4914%,19.84%
Cc1nn(C)c(N2CCOCC2)c1CNC(C)c1ccccn1 (centres undefined),-1.754%,3.1%,7.08%
CCC1C(=O)NCCN1c1nccc(C)n1 (centres undefined),0%,5.443%,15.66%
CC(C)N1CCC(CC(=O)N(C)CC(=O)c2ccc(O)cc2)CC1,-2.353%,1.966%,11.9%
CNC1CCCN(Cc2noc(C3CC3)n2)C1 (centres undefined),4.167%,-42.43%,5.769%
CCS(=O)(=O)N1CCCn2c(nc(CN3CCCC3)cc2=O)C1,9.497%,4.727%,11.54%
Cc1ccc(CN(CCCN(C)C)Cc2cnc(C)n2C)o1,6.084%,-2.843%,3.448%
Cc1cccc(Nc2cc(C3CCCN(CC(N)=O)C3)ccn2)n1 (centres undefined),0.7576%,-1.726%,-1.408%
CN(C)c1cccc(C(=O)Nc2cnn(Cc3ccncc3)c2)c1,10.71%,5.528%,17.05%
COc1ccc(C(NCc2ccc(C#N)cc2)C2CC2)cc1 (centres undefined),7.328%,2.408%,29.11%
Cc1nc(C2CCN(C(=O)c3ccn(C)n3)CC2)c2sccn12,6.667%,-0.7264%,20.62%
COc1ccc(C(C(=O)O)N(C)CCN2CCCC2)c(C)c1 (centres undefined),3.226%,-2.174%,-3.03%
COc1c(C(=O)NCC(C)C)nnn1Cc1ccccc1,0.8696%,3.464%,10.34%
Cc1ccc(OCC(O)Cn2ncc3cnn(C)c(=O)c32)cc1 (centres undefined),13.79%,4.519%,6.14%
COCC1CC2(CCN(C(=O)c3ccc(F)cc3C)CC2)CO1 (centres undefined),3.279%,12.42%,21.05%
CCN(C)c1ncnc2c1CCN(Cc1ccc(OC)cc1)CC2,8.197%,3.732%,7.843%
CC(C)C(NC(=O)c1ccc(=O)[nH]c1)c1nnc2n1CCNCC2 (centres undefined),3.279%,6.601%,10.96%
CC1CCc2nc(O)c(C(=O)NCCCN3CCN(C)CC3)cc2C1 (centres undefined),4.545%,-22.91%,15%
Cc1ncsc1CN1CCN(C2CCOCC2)CC(C(N)=O)C1 (centres undefined),2.996%,6.568%,10%
Cc1ccccc1CN(Cc1ccncc1)CC(C)C,4.082%,-1.512%,8.571%
c1cncc(CN2CCCC3(COCCN(c4cncnc4)C3)C2)c1 (centres undefined),9.804%,2.5%,20%

Repeated from the top, 7 entries:

For CCOc1cc(C)nc(N2CCN(C(=O)c3csnn3)CC2)n1 the result was TcHisRS: -12.87%; CoaBC: 3.827%; LiHisRS: 16.36%.
For O=C(c1cc(C2CC2)nc2onc(-c3ccccc3)c12)N1CC(O)C1 the result was TcHisRS: 7.879%; CoaBC: 0.7299%; LiHisRS: 17.78%.
For Cc1ccccc1N1CC2(CCN(S(=O)(=O)c3ccccc3)C2)CC1=O (centres undefined) the result was TcHisRS: 7.767%; CoaBC: 5.534%; LiHisRS: 19.23%.
For c1cc(-c2ccc(CN3CCC4(CCNCC4)CC3)s2)[nH]n1 the result was TcHisRS: 7.65%; CoaBC: -41.18%; LiHisRS: 7.018%.
For O=C(c1cncnc1)N1CCCC(c2nccs2)C1 (centres undefined) the result was TcHisRS: 6.513%; CoaBC: -1.914%; LiHisRS: 11.51%.
For O=C1CCCN1CCc1noc(-c2ccc3[nH]cnc3c2)n1 the result was TcHisRS: 6.383%; CoaBC: 4.121%; LiHisRS: 15.62%.
For COCCn1ccc(NC(=O)Nc2ccc(C(N)=O)c(F)c2)n1 the result was TcHisRS: 3.261%; CoaBC: 4.184%; LiHisRS: -5.714%.